In the assay the target is T1, C-terminally FLAG-tagged human CD99 (human) (UniProt P14209).
T1 sequence: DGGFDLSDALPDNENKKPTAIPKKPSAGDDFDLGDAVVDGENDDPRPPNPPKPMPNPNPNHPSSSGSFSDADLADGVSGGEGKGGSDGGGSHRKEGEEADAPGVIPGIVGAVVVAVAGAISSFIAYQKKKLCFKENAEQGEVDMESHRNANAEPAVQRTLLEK
The experiment in a line: co-IP; C-terminally FLAG-tagged CD99 and/or CD99L2 co-transfected with GDF6 prodomain (wild type, A249E or L289P) in 293T cells; anti-FLAG immunoprecipitation, immunoblotting. (In western blotting, separated proteins are transferred to a membrane and probed.)

By UniProt entry, the sequences of proteins in these tests, tags left out. Where a name states a change or a piece, a line headed by the entry shows the natural chain unless it says otherwise.
UniProt Q6KF10: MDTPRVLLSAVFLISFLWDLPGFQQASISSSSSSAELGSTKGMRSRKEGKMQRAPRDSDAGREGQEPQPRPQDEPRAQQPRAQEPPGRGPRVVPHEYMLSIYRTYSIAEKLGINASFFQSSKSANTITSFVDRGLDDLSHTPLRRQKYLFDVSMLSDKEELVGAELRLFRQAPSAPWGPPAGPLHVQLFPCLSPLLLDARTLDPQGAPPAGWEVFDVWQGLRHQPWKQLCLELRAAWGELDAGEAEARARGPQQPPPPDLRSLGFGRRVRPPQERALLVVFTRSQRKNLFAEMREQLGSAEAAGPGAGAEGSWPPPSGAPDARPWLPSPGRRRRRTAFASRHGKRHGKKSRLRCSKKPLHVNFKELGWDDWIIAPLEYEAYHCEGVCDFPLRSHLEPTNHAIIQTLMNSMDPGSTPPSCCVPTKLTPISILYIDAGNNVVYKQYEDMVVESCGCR

Results are given in words; binding and its absence hold for the method and conditions named. In cells and extracts the contact can be indirect. A result given as binding can be weak or reduced; the word gives no strength. Sequences can lack the tags named with a protein.

In the case of “GDF6 A249E prodomain (from UniProt Q6KF10) (domain or fragment)”, the binding result is “binds”.

As for “GDF6 L289P prodomain (from UniProt Q6KF10) (domain or fragment)”, the binding entry is “binds”.

Values taken from publication PMC7688343, “GDF6-CD99 Signaling Regulates Src and Ewing Sarcoma Growth” (Cell reports, 2020).
